Laboratory results: PubChem BioAssay AID1671195 (Yale University, 2021)
Here is one part, drawn at random, of about 22,000 deposited reagents. In the full data, about 1,510 (6.9%) got an active call. 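Active includes knockdowns raising or lowering LDL uptake; positive z-scores mean more uptake, negative mean less.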

Test: 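Regulators of LDL receptor activity judged by labelled LDL uptake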 (primary screen)
Cells: human Huh7 hepatoma cells
Reagents: siRNA pool against human genes, 18 nM
Time to read-out: about 2 to 2.5 days of knockdown, then 8 h LDL uptake
Treatment: DiI-labelled LDL at 30 µg/ml for 8 h, in lipoprotein-deficient serum medium
Measurement: 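Per-cell DiI-LDL intensity by automated imaging; well means scaled to the plate median and given as a robust z-score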
Reading the numbers: robust z-score: higher = more LDL uptake after knockdown
Hit rule: 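Active when two or more replicates show a robust z-score above 2 or below -2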

no.	gene knocked down	robust z-score, replicate 1	robust z-score, replicate 2	robust z-score, replicate 3	Call
1	TSNAXIP1	2.1	-0.728	1.39	inactive
2	MRPL15	0.966	-0.339	0.976	inactive
3	KCNAB1	0.182	0.637	-0.278	inactive
4	LOC388624 (retired record)	1.48	1.87	1.72	inactive
5	HEPN1	0.0727	-0.133	-1.13	inactive
6	HCCS	-0.569	0.949	-0.319	inactive
7	TLE3	0.652	-0.918	-0.86	inactive
8	TEKT4P2	-0.305	-0.194	-0.485	inactive
9	EPDR1	-0.725	-1.37	-1.25	inactive
10	HSD11B2	-2.14	-2.91	-2.48	active
11	RGMA	-0.944	-1.87	-1.59	inactive
12	PARVB	-0.156	-0.529	-1.03	inactive
13	ARID1B	-0.332	0.829	0.278	inactive
14	C12orf42	-1.25	-1.17	-1.24	inactive
15	LOC440282 (retired record)	-1.76	-1.75	-1.8	inactive
16	LIG4	1.07	-0.0353	-0.453	inactive
17	SERPINA13P	-1.38	-2.24	-1.22	inactive
18	FBXO11	-0.021	-0.0182	0.527	inactive
19	SNX33	-1.14	-0.952	-1.27	inactive
20	DPY30	-0.862	-0.934	-1.04	inactive
21	ATP2B1	0.367	-0.0506	0.197	inactive
22	ECHDC3	-0.0428	-0.653	0.178	inactive
23	DCDC2	2.46	1.88	-1.28	inactive
24	TMEM120A	-1.18	-1.34	-1.44	inactive
25	OR4C45	-0.235	0.409	0.799	inactive
26	GPR108	0.214	1.65	0.505	inactive
27	SHISA5	-0.56	-1.37	-0.82	inactive
28	LOC389892 (retired record)	1.95	2.61	2.51	active

Quoted from the entries so far for reference:
no.	gene knocked down	robust z-score, replicate 1	robust z-score, replicate 2	robust z-score, replicate 3	Call
11	RGMA	-0.944	-1.87	-1.59	inactive
12	PARVB	-0.156	-0.529	-1.03	inactive
13	ARID1B	-0.332	0.829	0.278	inactive
14	C12orf42	-1.25	-1.17	-1.24	inactive
15	LOC440282 (retired record)	-1.76	-1.75	-1.8	inactive
